# From the supplement of paper PMC8728848
# Some of the results follow.
# Legend:
# Experiment in all cases: glycan array binding signal (z-score within array); higher = stronger binding
# Conditions in all cases: glycan notation: IUPAC condensed, linker removed
# [1] = molecular target: Gal(b1-4)GlcNAc(b1-3)Gal(b1-4)GlcNAc(b1-3)[Gal(b1-4)GlcNAc(b1-3)Gal(b1-4)GlcNAc(b1-6)]GalNAc
# Summary of the method: (§1)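 Arrays were curated from the Consortium for Functional Glycomics database, 3228 in total, and kept only where the protein sequence was available. Binding is expressed as a within-array Z-score. This score was averaged across arrays of the same protein sequence at different concentrations or buffers and across linkers, and negative values can be read as non-binding.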
# [2] = molecular target: Gal(b1-4)GlcNAc(b1-3)Gal(b1-4)GlcNAc(b1-6)[Gal(b1-3)]GalNAc
# Summary of the method: as §1
# [3] = molecular target: Gal(b1-4)GlcNAc(b1-3)Gal(b1-4)[Fuc(a1-3)]GlcNAc(b1-3)Gal(b1-4)[Fuc(a1-3)]GlcNAc
# Summary of the method: as §1
# [4] = molecular target: Gal(b1-4)GlcNAc(b1-3)GalNAc
# Summary of the method: as §1
# [5] = molecular target: Gal(b1-4)GlcNAc(b1-3)[Fuc(a1-3)GlcNAc(b1-6)]Gal(b1-4)Glc
# Summary of the method: as §1
# [6] = molecular target: Gal(b1-4)GlcNAc(b1-3)[Gal(b1-4)GlcNAc(b1-6)]Gal(b1-4)GlcNAc
# Summary of the method: as §1
# [7] = molecular target: Gal(b1-4)GlcNAc(b1-3)[GlcNAc(b1-6)]Gal(b1-4)GlcNAc
# Summary of the method: as §1
# [8] = molecular target: Gal(b1-4)GlcNAc(b1-6)Gal(b1-4)GlcNAc
# Summary of the method: as §1
# [9] = molecular target: Gal(b1-4)GlcNAc(b1-6)GalNAc
# Summary of the method: as §1
# [10] = molecular target: Gal(b1-4)GlcNAc(b1-6)[Gal(b1-3)]GalNAc
# Summary of the method: as §1
# [11] = molecular target: Gal(b1-4)GlcNAc(b1-6)[Gal(b1-4)GlcNAc(b1-3)]GalNAc
# Summary of the method: as §1
# Gal(b1-4)GlcNAc6P = molecular target: Gal(b1-4)GlcNAc6P
# Summary of the method: as §1
# Gal(b1-6)Gal = molecular target: Gal(b1-6)Gal
# Summary of the method: as §1
# Gal3S(b1-3)GalNAc = molecular target: Gal3S(b1-3)GalNAc
# Summary of the method: as §1
# Gal3S(b1-3)GlcNAc = molecular target: Gal3S(b1-3)GlcNAc
# Summary of the method: as §1
# [12] = molecular target: Gal3S(b1-3)[Fuc(a1-4)]GlcNAc
# Summary of the method: as §1
# Gal3S(b1-4)Glc = molecular target: Gal3S(b1-4)Glc
# Summary of the method: as §1
# Gal3S(b1-4)Glc6S = molecular target: Gal3S(b1-4)Glc6S
# Summary of the method: as §1
# Gal3S(b1-4)GlcNAc = molecular target: Gal3S(b1-4)GlcNAc
# Summary of the method: as §1
# [13] = molecular target: Gal3S(b1-4)[Fuc(a1-3)]Glc6S
# Summary of the method: as §1
# [14] = molecular target: Gal3S(b1-4)[Fuc(a1-3)]GlcNAc
# Summary of the method: as §1
# [15] = molecular target: Gal3S(b1-4)[Fuc(a1-3)]GlcNAc6S
# Summary of the method: as §1
# Gal3S4S(b1-4)GlcNAc = molecular target: Gal3S4S(b1-4)GlcNAc
# Summary of the method: as §1
# Gal3S6S(b1-4)GlcNAc = molecular target: Gal3S6S(b1-4)GlcNAc
# Summary of the method: as §1
# Gal3S6S(b1-4)GlcNAc6S = molecular target: Gal3S6S(b1-4)GlcNAc6S
# Summary of the method: as §1
# Gal4S(b1-4)GlcNAc = molecular target: Gal4S(b1-4)GlcNAc
# Summary of the method: as §1
# Gal4S6S(b1-4)GlcNAc = molecular target: Gal4S6S(b1-4)GlcNAc
# Summary of the method: as §1
# Gal6P(b1-4)GlcNAc = molecular target: Gal6P(b1-4)GlcNAc
# Summary of the method: as §1
# Gal6S(b1-3)GlcNAc = molecular target: Gal6S(b1-3)GlcNAc
# Summary of the method: as §1
# Gal6S(b1-3)GlcNAc6S = molecular target: Gal6S(b1-3)GlcNAc6S
# Summary of the method: as §1
# Gal6S(b1-4)Glc = molecular target: Gal6S(b1-4)Glc
# Summary of the method: as §1
# Gal6S(b1-4)Glc6S = molecular target: Gal6S(b1-4)Glc6S
# Summary of the method: as §1
# Gal6S(b1-4)GlcNAc = molecular target: Gal6S(b1-4)GlcNAc
# Summary of the method: as §1
# Gal6S(b1-4)GlcNAc6S = molecular target: Gal6S(b1-4)GlcNAc6S
# Summary of the method: as §1
# GalNAc(a1-3)Gal = molecular target: GalNAc(a1-3)Gal
# Summary of the method: as §1
# GalNAc(a1-3)GalNAc = molecular target: GalNAc(a1-3)GalNAc
# Summary of the method: as §1
# [16] = molecular target: GalNAc(a1-3)GalNAc(b1-3)Gal(a1-4)Gal(b1-4)Glc
# Summary of the method: as §1
# [17] = molecular target: GalNAc(a1-3)GalNAc(b1-3)Gal(a1-4)Gal(b1-4)GlcNAc
# Summary of the method: as §1
# GalNAc(b1-3)Gal = molecular target: GalNAc(b1-3)Gal
# Summary of the method: as §1
# [18] = molecular target: GalNAc(b1-3)Gal(a1-4)Gal(b1-4)GlcNAc
# Summary of the method: as §1
# [19] = molecular target: GalNAc(b1-3)Gal(a1-4)Gal(b1-4)GlcNAc(b1-3)Gal(b1-4)Glc
# Summary of the method: as §1
# [20] = molecular target: GalNAc(b1-3)Gal(a1-6)Gal(b1-4)Glc
# Summary of the method: as §1
# GalNAc(b1-3)GalNAc = molecular target: GalNAc(b1-3)GalNAc
# Summary of the method: as §1
# GalNAc(b1-3)GlcNAc = molecular target: GalNAc(b1-3)GlcNAc
# Summary of the method: as §1
# GalNAc(b1-4)Gal(b1-4)Glc = molecular target: GalNAc(b1-4)Gal(b1-4)Glc
# Summary of the method: as §1
binder,measurement,setting,value
"EfCBM33A (Enterococcus faecalis), Q838S1 (protein) MKKSLLTIVLAFSFVLGGAALAPTVSEAHGYVASPGSRAFFGSSAGGNLNTNVGRAQWEPQSIEAPKNTFITGKLASAGVSGFEPLDEQTATRWHKTNITTGPLDITWNLTAQHRTASWDYYITKNGWNPNQPLDIKNFDKIASIDGKQEVPNKVVKQTINIPTDRKGYHVIYAVWGIGDTVNAFYQAIDVNIQ",glycan array binding signal (z-score),[1],-0.931
same,glycan array binding signal (z-score),[2],1.36
same,glycan array binding signal (z-score),[3],0.067
same,glycan array binding signal (z-score),[4],-0.261
same,glycan array binding signal (z-score),[5],0.183
same,glycan array binding signal (z-score),[6],1.04
same,glycan array binding signal (z-score),[7],-0.489
same,glycan array binding signal (z-score),[8],1.43
same,glycan array binding signal (z-score),[9],0
same,glycan array binding signal (z-score),[10],0.516
same,glycan array binding signal (z-score),[11],0.288
same,glycan array binding signal (z-score),Gal(b1-4)GlcNAc6P,-0.716
same,glycan array binding signal (z-score),Gal(b1-6)Gal,-1.04
same,glycan array binding signal (z-score),Gal3S(b1-3)GalNAc,-0.034
same,glycan array binding signal (z-score),Gal3S(b1-3)GlcNAc,0.456
same,glycan array binding signal (z-score),[12],2.81
same,glycan array binding signal (z-score),Gal3S(b1-4)Glc,0.229
same,glycan array binding signal (z-score),Gal3S(b1-4)Glc6S,-0.436
same,glycan array binding signal (z-score),Gal3S(b1-4)GlcNAc,-0.149
same,glycan array binding signal (z-score),[13],0.12
same,glycan array binding signal (z-score),[14],1.56
same,glycan array binding signal (z-score),[15],-0.305
same,glycan array binding signal (z-score),Gal3S4S(b1-4)GlcNAc,-1.01
same,glycan array binding signal (z-score),Gal3S6S(b1-4)GlcNAc,-0.444
same,glycan array binding signal (z-score),Gal3S6S(b1-4)GlcNAc6S,-0.418
same,glycan array binding signal (z-score),Gal4S(b1-4)GlcNAc,-1.18
same,glycan array binding signal (z-score),Gal4S6S(b1-4)GlcNAc,-0.01
same,glycan array binding signal (z-score),Gal6P(b1-4)GlcNAc,0.079
same,glycan array binding signal (z-score),Gal6S(b1-3)GlcNAc,0.101
same,glycan array binding signal (z-score),Gal6S(b1-3)GlcNAc6S,-0.617
same,glycan array binding signal (z-score),Gal6S(b1-4)Glc,0.979
same,glycan array binding signal (z-score),Gal6S(b1-4)Glc6S,-0.674
same,glycan array binding signal (z-score),Gal6S(b1-4)GlcNAc,0.105
same,glycan array binding signal (z-score),Gal6S(b1-4)GlcNAc6S,0.294
same,glycan array binding signal (z-score),GalNAc(a1-3)Gal,-1.02
same,glycan array binding signal (z-score),GalNAc(a1-3)GalNAc,-0.407
same,glycan array binding signal (z-score),[16],-1
same,glycan array binding signal (z-score),[17],-0.606
same,glycan array binding signal (z-score),GalNAc(b1-3)Gal,1.69
same,glycan array binding signal (z-score),[18],-0.151
same,glycan array binding signal (z-score),[19],0.963
same,glycan array binding signal (z-score),[20],-1.28
same,glycan array binding signal (z-score),GalNAc(b1-3)GalNAc,-0.516
same,glycan array binding signal (z-score),GalNAc(b1-3)GlcNAc,-0.001
same,glycan array binding signal (z-score),GalNAc(b1-4)Gal(b1-4)Glc,-0.885

# Two records picked at random from those above:
binder,measurement,setting,value
"EfCBM33A (Enterococcus faecalis), Q838S1 (protein) MKKSLLTIVLAFSFVLGGAALAPTVSEAHGYVASPGSRAFFGSSAGGNLNTNVGRAQWEPQSIEAPKNTFITGKLASAGVSGFEPLDEQTATRWHKTNITTGPLDITWNLTAQHRTASWDYYITKNGWNPNQPLDIKNFDKIASIDGKQEVPNKVVKQTINIPTDRKGYHVIYAVWGIGDTVNAFYQAIDVNIQ",glycan array binding signal (z-score),GalNAc(b1-4)Gal(b1-4)Glc,-0.885
same,glycan array binding signal (z-score),Gal6S(b1-4)GlcNAc,0.105
